## Library screening results

Source: ChEMBL document CHEMBL3988442, “University of Dundee, Small-Polar-MMV Screening Library” (2021).

Values are the deposited “Percent Effect”, in %.
How 0% and 100% were set is not recorded. Most values in the screen are low, and negative values occur.
Compounds were drawn at random from those tested, without regard to their results.

Mtb growth Cornell: 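Whole-cell assay for inhibitors of Mycobacterium tuberculosis growth, labelled Cornell in the record; the read-out is not stated. The concentration is filed as 10 mM, unlikely as a test dose, so the dose is not known. The record gives no direction; compounds strong in two other growth screens of this library score well above the rest, so higher reads as stronger inhibition. About 53,000 compounds were tested under these conditions; 1.7% (about 900) showed 50% or more at least once.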
Mtb heat-shock: 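Assay on Mycobacterium tuberculosis, filed only as a heat shock assay from Cornell; the read-out is not stated. The concentration is filed as 10 mM, unlikely as a test dose, so the dose is not known. The record gives no direction; compounds that gave an IC50 in retests scored well above the rest, so higher reads as stronger inhibition. Size under these conditions: about 69,000 compounds, about 930 of them at 50% or above in at least one test.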

[H][C@@]12CN(CC3CCOC3)C[C@]1([H])OCCN2c1ncc(F)cn1 (some centres undefined) gave Mtb heat-shock: -5.685%. Cc1noc(C)c1CC(=O)N1CCCC(n2ccnc2C)C1 (centres undefined) gave Mtb growth Cornell: -0.5398%; Mtb heat-shock: -17.54%. With CCN(CC)S(=O)(=O)N1CCCC(c2nccn2Cc2ccncc2)C1 (centres undefined) the screen gave Mtb growth Cornell: -0.4349%; Mtb heat-shock: -24.46%. For CCOc1ccccc1-n1c(C2CCC2)n[nH]c1=O the result was Mtb growth Cornell: -4.55%; Mtb heat-shock: -9.883%. With CCS(=O)(=O)N1CCCn2c(nc(CN3CCCC3)cc2=O)C1 the screen gave Mtb growth Cornell: 7.096%; Mtb heat-shock: 11.68%.

With CN(Cc1cccnc1)CC1CC12CCN(c1nncs1)CC2.O=C(O)C(F)(F)F.O=C(O)C(F)(F)F.O=C(O)C(F)(F)F (centres undefined) the screen gave Mtb growth Cornell: 9.387%; Mtb heat-shock: 3.049%. For Cc1cnn(CCNCc2nccn2Cc2ccccc2)c1 the result was Mtb heat-shock: 44.87%. COc1ccccc1C(O)Cn1cc(C(=O)NCc2ccco2)nn1 (centres undefined) read Mtb growth Cornell: 13.4%; Mtb heat-shock: 10.33%. With COc1c(C)cnc(CN2CCOC(Cn3nc(C)nc3C)C2)c1C (centres undefined) the screen gave Mtb growth Cornell: 15.99%; Mtb heat-shock: 12.46%. CCCC(=O)NCc1cccc(C(=O)OC)c1 read Mtb growth Cornell: 6.367%; Mtb heat-shock: -2.772%.

For O=C1CCC[C@]2(CN(S(=O)(=O)N3CCCCC3)C[C@H]2c2cccnc2)N1 the result was Mtb growth Cornell: -3.455%; Mtb heat-shock: 4.091%. For Cn1nnc2c1C(COCC1CC1)CN(Cc1ccoc1)C2.O=C(O)C(F)(F)F (centres undefined) the result was Mtb growth Cornell: -10.75%; Mtb heat-shock: -14.44%. For CCN(C(=O)c1ccc2nnc(C3CCN(CCOC)C3)n2c1)C(C)C.O=C(O)C(F)(F)F (centres undefined) the result was Mtb growth Cornell: 2.236%; Mtb heat-shock: 5.278%. With COc1cc(C(=O)N(Cc2cccs2)C2CC2)cc2c1OCCO2 the screen gave Mtb growth Cornell: -21.24%; Mtb heat-shock: -14.77%. CC(C)NC(=O)CN1CCC(c2cccc(F)c2)C1 (centres undefined) read Mtb heat-shock: -24.09%.

COc1c(C(=O)NCC(C)C)nnn1Cc1ccccc1 read Mtb heat-shock: -11.01%. Result for NC(=O)CN1CCc2c(Br)ccc(F)c2C1 was Mtb growth Cornell: 16.85%; Mtb heat-shock: -20.53%. For CCn1ccnc1CN1CCCC1C(=O)Nc1nccs1 (centres undefined) the result was Mtb heat-shock: -1.9%. CN(C)Cc1cc(=O)n2c(n1)CN(CC1CC1)CCC2 read Mtb growth Cornell: 4.962%; Mtb heat-shock: -15.16%. For [H][C@@]12CN(Cc3cccnc3)C[C@]1([H])C(=O)N(C)C21CCN(C(C)=O)CC1 the result was Mtb heat-shock: -9.044%.

With CS(=O)(=O)c1ccc2c(c1)nc1n2[C@@H](CNCc2cccnc2)COC1 the screen gave Mtb heat-shock: -3.559%. With Cc1cc(N2CCC(NCCOc3ccccc3)CC2)nc(C)n1 the screen gave Mtb growth Cornell: 7.956%; Mtb heat-shock: -3.32%. O=C(O)c1cccc(N2C[C@H](NC(=O)C3CCOCC3)[C@@H](C3CC3)C2)n1 gave Mtb growth Cornell: 28.59%; Mtb heat-shock: 4.618%. CCOCC(=O)N1CCC(Oc2ccc(Cl)cn2)CC1 read Mtb growth Cornell: 28.2%; Mtb heat-shock: 9.718%. Cc1cc(N2Cc3cnn(CCO)c3C2)nc(-c2ccccc2)n1 read Mtb growth Cornell: -19.61%; Mtb heat-shock: -15.78%.

For Cc1n[nH]c(C)c1CC(=O)N1CCN(C)C2(CCNC(=O)CC2)C1 (centres undefined) the result was Mtb growth Cornell: -40.89%; Mtb heat-shock: -10.65%. CC1CN(c2ccc(NC(=O)Cn3cccn3)cc2)CCO1 (centres undefined) read Mtb growth Cornell: -5.599%; Mtb heat-shock: 8.064%. CC(=O)N1CCCC1CCc1ccc(Cl)nn1 (centres undefined) read Mtb growth Cornell: 30.13%; Mtb heat-shock: -4.746%.

For reference, 3 entries once more:

structure,Mtb growth Cornell,Mtb heat-shock
CCS(=O)(=O)N1CCCn2c(nc(CN3CCCC3)cc2=O)C1,7.096,11.68
Cc1noc(C)c1CC(=O)N1CCCC(n2ccnc2C)C1 (centres undefined),-0.5398,-17.54
Cc1n[nH]c(C)c1CC(=O)N1CCN(C)C2(CCNC(=O)CC2)C1 (centres undefined),-40.89,-10.65